Data source: PubChem BioAssay AID1159596 (NIAID, 2016)

Assay: 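Genes whose silencing alters the TNF reporter response of macrophage-like cells to peptidoglycan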 (primary screen)
Cells: human THP1 B5 monocytic reporter cells made macrophage-like with PMA
Knock-down reagent: single siRNA against human genes
Duration: assayed 48 to 72 hours after siRNA transfection; peptidoglycan stimulation lasted 4 hours
Challenge: Staphylococcus aureus peptidoglycan for 4 hours; dose not given
Measured: 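Mean over replicate screens of a robust z per siRNA from the dual luciferase TNF promoter reporter after 4 h peptidoglycan, median/MAD normalised, relative to negative controls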
Scale: TNF reporter z-score: higher = stronger TNF promoter reporter response to peptidoglycan
Rule for the call: In these data the active calls have TNF reporter z-score, replicate mean at about -1.5 or lower, or at about 1.5 or higher
Calls: active = reporter shifted beyond cut (either direction); inactive = reporter near control level
Shown is a random part of 756 reagents tested. Of all reagents, 143 (19%) were called active. 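Active means the reporter moved past about ±1.5 in either direction; scores are per single siRNA, not per gene; peptidoglycan dose not given.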 A number with no mark means an inactive call. Reagents against one gene are numbered here. Not stated in the record: the amount of reagent.

With knock-down of TLR1 (toll like receptor 1) #1 the results were TNF reporter z-score, replicate mean -0.0795.
Against TLR1 (toll like receptor 1) #2 the deposit lists TNF reporter z-score, replicate mean -1.19.
After knock-down of TLR1 (toll like receptor 1) #3, the record shows TNF reporter z-score, replicate mean -1.42.
After knock-down of TLR1 (toll like receptor 1) #4 the results were TNF reporter z-score, replicate mean 0.807.
TLR1 (toll like receptor 1) #5 showed TNF reporter z-score, replicate mean -0.429.
Knock-down of TLR1 (toll like receptor 1) #6 resulted in: TNF reporter z-score, replicate mean -0.311.
Silencing of TAB2 (TGF-beta activated kinase 1 (MAP3K7) binding protein 2) #1 gave: TNF reporter z-score, replicate mean 0.639.
After knock-down of TAB2 (TGF-beta activated kinase 1 (MAP3K7) binding protein 2) #2 the results were TNF reporter z-score, replicate mean -1.2.
Silencing of TAB2 (TGF-beta activated kinase 1 (MAP3K7) binding protein 2) #3 came out at: TNF reporter z-score, replicate mean -2.59 (active).
Knock-down of TAB2 (TGF-beta activated kinase 1 (MAP3K7) binding protein 2) #4 resulted in: TNF reporter z-score, replicate mean -2.14 (active).
TAB2 (TGF-beta activated kinase 1 (MAP3K7) binding protein 2) #5 showed TNF reporter z-score, replicate mean -4.06 (active).
Against TAB2 (TGF-beta activated kinase 1 (MAP3K7) binding protein 2) #6, the entry reads TNF reporter z-score, replicate mean -2.06 (active).
Depletion of ELK4 (ETS transcription factor ELK4) #1 gave: TNF reporter z-score, replicate mean -1.08.
After knock-down of ELK4 (ETS transcription factor ELK4) #2 the results were TNF reporter z-score, replicate mean -0.583.
ELK4 (ETS transcription factor ELK4) #3 showed TNF reporter z-score, replicate mean -0.18.
With knock-down of ELK4 (ETS transcription factor ELK4) #4, the screen gave TNF reporter z-score, replicate mean 0.554.
Silencing of ELK4 (ETS transcription factor ELK4) #5 resulted in: TNF reporter z-score, replicate mean -0.676.
Against ELK4 (ETS transcription factor ELK4) #6 the deposit lists TNF reporter z-score, replicate mean -0.42.
MAP3K1 (mitogen-activated protein kinase kinase kinase 1) #1 gave TNF reporter z-score, replicate mean -0.936.
Against MAP3K1 (mitogen-activated protein kinase kinase kinase 1) #2 the deposit lists TNF reporter z-score, replicate mean -0.451.
MAP3K1 (mitogen-activated protein kinase kinase kinase 1) #3 scored TNF reporter z-score, replicate mean 0.252.
MAP3K1 (mitogen-activated protein kinase kinase kinase 1) #4 showed TNF reporter z-score, replicate mean -3.35 (active).
With knock-down of MAP3K1 (mitogen-activated protein kinase kinase kinase 1) #5 the results were TNF reporter z-score, replicate mean -0.289.
Against MAP3K1 (mitogen-activated protein kinase kinase kinase 1) #6, the values are TNF reporter z-score, replicate mean -0.898.
With knock-down of LBP (lipopolysaccharide binding protein) #1, the record shows TNF reporter z-score, replicate mean -0.631.
Against LBP (lipopolysaccharide binding protein) #2, the values are TNF reporter z-score, replicate mean -0.111.
LBP (lipopolysaccharide binding protein) #3 scored TNF reporter z-score, replicate mean 1.79 (active).
For LBP (lipopolysaccharide binding protein) #4, the values are TNF reporter z-score, replicate mean -0.583.
With knock-down of LBP (lipopolysaccharide binding protein) #5, the record shows TNF reporter z-score, replicate mean 0.17.
Against LBP (lipopolysaccharide binding protein) #6, the values are TNF reporter z-score, replicate mean 0.156.
Depletion of TNF (tumor necrosis factor) #1 gave: TNF reporter z-score, replicate mean -1.06.
Against TNF (tumor necrosis factor) #2, the values are TNF reporter z-score, replicate mean -0.804.
Silencing of TNF (tumor necrosis factor) #3 came out at: TNF reporter z-score, replicate mean -1.87 (active).
With knock-down of TNF (tumor necrosis factor) #4, the record shows TNF reporter z-score, replicate mean 0.0282.
TNF (tumor necrosis factor) #5 showed TNF reporter z-score, replicate mean -1.25.
With knock-down of TNF (tumor necrosis factor) #6, the screen gave TNF reporter z-score, replicate mean -3.19 (active).
Against RIPK3 (receptor interacting serine/threonine kinase 3) #1 the deposit lists TNF reporter z-score, replicate mean -0.0548.
For RIPK3 (receptor interacting serine/threonine kinase 3) #2, the entry reads TNF reporter z-score, replicate mean -0.85.
RIPK3 (receptor interacting serine/threonine kinase 3) #3 scored TNF reporter z-score, replicate mean 0.102.
Silencing of RIPK3 (receptor interacting serine/threonine kinase 3) #4 resulted in: TNF reporter z-score, replicate mean -0.464.
After knock-down of RIPK3 (receptor interacting serine/threonine kinase 3) #5, the record shows TNF reporter z-score, replicate mean -0.114.
Silencing of RIPK3 (receptor interacting serine/threonine kinase 3) #6 came out at: TNF reporter z-score, replicate mean 0.0441.
Knock-down of TLR5 (toll like receptor 5) #1 came out at: TNF reporter z-score, replicate mean -0.431.
TLR5 (toll like receptor 5) #2 gave TNF reporter z-score, replicate mean 0.681.
Against TLR5 (toll like receptor 5) #3, the values are TNF reporter z-score, replicate mean -0.7.
TLR5 (toll like receptor 5) #4 showed TNF reporter z-score, replicate mean -0.527.
For TLR5 (toll like receptor 5) #5 the deposit lists TNF reporter z-score, replicate mean -0.872.
TLR5 (toll like receptor 5) #6 scored TNF reporter z-score, replicate mean -1.03.
Knock-down of ELF4 (E74 like ETS transcription factor 4) #1 gave: TNF reporter z-score, replicate mean -2.89 (active).
Against ELF4 (E74 like ETS transcription factor 4) #2, the values are TNF reporter z-score, replicate mean -1.84 (active).
Depletion of ELF4 (E74 like ETS transcription factor 4) #3 resulted in: TNF reporter z-score, replicate mean -0.792.
ELF4 (E74 like ETS transcription factor 4) #4 scored TNF reporter z-score, replicate mean -1.51 (active).
ELF4 (E74 like ETS transcription factor 4) #5 showed TNF reporter z-score, replicate mean -0.756.
After knock-down of ELF4 (E74 like ETS transcription factor 4) #6 the results were TNF reporter z-score, replicate mean -1.32.
NFKBIB (NFKB inhibitor beta) #1 showed TNF reporter z-score, replicate mean -1.29.
Silencing of NFKBIB (NFKB inhibitor beta) #2 gave: TNF reporter z-score, replicate mean -0.399.
After knock-down of NFKBIB (NFKB inhibitor beta) #3 the results were TNF reporter z-score, replicate mean -0.334.
Knock-down of NFKBIB (NFKB inhibitor beta) #4 gave: TNF reporter z-score, replicate mean -0.861.
Silencing of NFKBIB (NFKB inhibitor beta) #5 gave: TNF reporter z-score, replicate mean 0.104.
Against NFKBIB (NFKB inhibitor beta) #6, the values are TNF reporter z-score, replicate mean -0.187.

Quoted from the entries so far for reference:
TNF (tumor necrosis factor) #6: TNF reporter z-score, replicate mean = -3.19 (active)
RIPK3 (receptor interacting serine/threonine kinase 3) #1: TNF reporter z-score, replicate mean = -0.0548
RIPK3 (receptor interacting serine/threonine kinase 3) #2: TNF reporter z-score, replicate mean = -0.85
RIPK3 (receptor interacting serine/threonine kinase 3) #3: TNF reporter z-score, replicate mean = 0.102
RIPK3 (receptor interacting serine/threonine kinase 3) #4: TNF reporter z-score, replicate mean = -0.464
RIPK3 (receptor interacting serine/threonine kinase 3) #5: TNF reporter z-score, replicate mean = -0.114
